Test results as given in publication PMC7819943, “Rice protein-binding microarrays: a tool to detect cis-acting elements near promoter regions in rice”.
The list shows a part of the results.

Amino acid sequences for entries named in this document (tags omitted).
UniProt Q0JBA9, entry or part of it: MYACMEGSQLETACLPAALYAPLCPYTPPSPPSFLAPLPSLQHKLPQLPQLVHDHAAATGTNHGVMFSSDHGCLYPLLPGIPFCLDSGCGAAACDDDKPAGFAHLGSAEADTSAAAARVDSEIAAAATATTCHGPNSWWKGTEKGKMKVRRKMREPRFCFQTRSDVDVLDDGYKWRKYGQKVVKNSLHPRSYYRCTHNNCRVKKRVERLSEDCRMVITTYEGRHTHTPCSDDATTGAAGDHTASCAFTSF

Target: OsWRKY34 (Oryza sativa, UniProt Q0JBA9 1-250)
Assay: protein-binding microarray (RPBM); PBS, 2% BSA, 51.3 ng/ul salmon testes DNA, 50 uM zinc acetate, 200 nM TF, 25 C, 1 h; high values mean tight binding
Conditions: protein: recombinant; tags: N-terminal polyhistidine and DsRed monomer fusion (pET32a); label: CyDye5-dUTP incorporated in the synthesized complementary strand; 3' TTTTT single-stranded linker to array surface; dsDNA, one strand shown
Procedure, shortened: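 Binding signal is reported as fluorescence intensity per feature (arbitrary units) from an Axon 4000B scanner. Incubation used 200 nM of each Ni–NTA-purified, N-terminally polyhistidine- and DsRed-fused transcription factor from E. coli BL21-CodonPlus on a double-stranded custom Agilent array for 1 h at 25 °C, with 50 µM zinc acetate in the buffer, followed by washing.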

Row | Sequence | binding signal
1 | TTGGGATTTGTTGATTGTAGTGTTAAATGTGTGCAATGTGCGGAGTCACCTAGTGCAG | 9130 fluorescence intensity (a.u.)
2 | TGTACTTTTTCCTTTTGAAGGGGTGGACTTTTCGTACTCGCGGAGTCACCTAGTGCAG | 8140 fluorescence intensity (a.u.)
3 | TCACTCATCCACACACAGCTCTCTAGCCTCTTGCCACATACGGAGTCACCTAGTGCAG | 9600 fluorescence intensity (a.u.)
4 | TTTCTCACATTTTCCATCAGTTGAATACTCCCACCCTGAACGGAGTCACCTAGTGCAG | 9630 fluorescence intensity (a.u.)
5 | TATGATCCCTGATCTCGTATCGGCATGGTCCCACGATTCCCGGAGTCACCTAGTGCAG | 9330 fluorescence intensity (a.u.)
6 | CCCCACTCCCAACCCATCTCCACCGTCCGTCCGATGCCTCCGGAGTCACCTAGTGCAG | 9600 fluorescence intensity (a.u.)
7 | GTTTCCGATGATAACATCACACCACCATTTTCCGATGATACGGAGTCACCTAGTGCAG | 8980 fluorescence intensity (a.u.)
8 | CGACTAGCGTACGTCTCATCTCATCGGATTGTCCTGTTTGCGGAGTCACCTAGTGCAG | 8520 fluorescence intensity (a.u.)
9 | ACTTTGGTATCATCATGTTGCCATATTTCGACTTCTAGCACGGAGTCACCTAGTGCAG | 8110 fluorescence intensity (a.u.)
10 | TTCTATTGGAAACGTTTAGCTATTTGGTTATCATTATTGTCGGAGTCACCTAGTGCAG | 10600 fluorescence intensity (a.u.)
11 | TTTTCGTCCGTATTATTCTGTTTCCGGTTTTCCAATATTTCGGAGTCACCTAGTGCAG | 11300 fluorescence intensity (a.u.)
12 | TCCTCTCCTCGCCACGCGCGCGCGCCAACGCCACCACCACCGGAGTCACCTAGTGCAG | 8610 fluorescence intensity (a.u.)
13 | TTTGGCTTTTGTCACATGAATATTATTCACTGCCTCCGCGCGGAGTCACCTAGTGCAG | 8990 fluorescence intensity (a.u.)
14 | TACTGCGTTTGCTTGTTCGATCCATCCATCCATCCATTTCCGGAGTCACCTAGTGCAG | 9230 fluorescence intensity (a.u.)
15 | CTGGTGACCTGTCGATCGAGTCCGCTGTTCTTGGTCAATCCGGAGTCACCTAGTGCAG | 10900 fluorescence intensity (a.u.)
16 | TGTTTTATTGTTTTGTTTTTATATTTTGTTTTTAGTGTCACGGAGTCACCTAGTGCAG | 8750 fluorescence intensity (a.u.)
17 | CTTCGCGTTGATTTTTTTTTCAGTGGCTGTATTTATTCGTCGGAGTCACCTAGTGCAG | 9810 fluorescence intensity (a.u.)
18 | TCCGCGCTCCGCCTCTTCGCCGCCATGCCCCGCCGCAACGCGGAGTCACCTAGTGCAG | 9570 fluorescence intensity (a.u.)
19 | TTGGCCGTTTTCATGACCCATTCTGTAACTTTTATCTGACCGGAGTCACCTAGTGCAG | 10600 fluorescence intensity (a.u.)
20 | CGTCCGAAACCTTGGCCAACCCCTAAGTAAATCTGTTATTCGGAGTCACCTAGTGCAG | 8090 fluorescence intensity (a.u.)
21 | GTTTCGGGAAGGGGAGGCAGAACGCAAGAAAGAAGGAAATCGGAGTCACCTAGTGCAG | 9510 fluorescence intensity (a.u.)
22 | CTCCATACTGCACCGTTTTTTGTAAATTTTTTTTGCTGCTCGGAGTCACCTAGTGCAG | 8210 fluorescence intensity (a.u.)
23 | GGATTTCAGGACGCACTTCTCCGGCCAGAGGAGCCTCATCCGGAGTCACCTAGTGCAG | 9370 fluorescence intensity (a.u.)
24 | GCAGTACACTGATACGATACAATCGTTGACTGTTTCAGGACGGAGTCACCTAGTGCAG | 9230 fluorescence intensity (a.u.)
25 | CATTTGTCTTGCAGTTCTTGCGGCTGGGCTCAAAGTTTTACGGAGTCACCTAGTGCAG | 8310 fluorescence intensity (a.u.)
26 | ACGCATCCTCCTCGCCGGCCTTCTCCGCGCAGCGTGCTTCCGGAGTCACCTAGTGCAG | 8050 fluorescence intensity (a.u.)
27 | TCTGCTGATCCTGTCGTCTTCCTCGTACCCTCTCTGCTGCCGGAGTCACCTAGTGCAG | 10400 fluorescence intensity (a.u.)

Row | Sequence | binding signal
28 | CAAACACACTGCTGACTGCTGATGTCCTTCTGTTGCATTGCGGAGTCACCTAGTGCAG | 9420 fluorescence intensity (a.u.)
29 | TAGCTCCAGTCCCATATACACCACAACGTTCACATCGTCGCGGAGTCACCTAGTGCAG | 8140 fluorescence intensity (a.u.)
30 | TGTCCAGTCGTCACCCTGCTGCTTCCCTGCCACTGCCCTACGGAGTCACCTAGTGCAG | 17000 fluorescence intensity (a.u.)
31 | ATCGGCTTTGACTCTGGCTTTGAATCCGGCCCACGGCCTTCGGAGTCACCTAGTGCAG | 9460 fluorescence intensity (a.u.)
32 | GGCCGCCACCCCACCAGACGCATCGATCCCCGTGTCCAGACGGAGTCACCTAGTGCAG | 8490 fluorescence intensity (a.u.)
33 | ATATATATATATATATATGTGTGTATATATATATATATATCGGAGTCACCTAGTGCAG | 8920 fluorescence intensity (a.u.)
34 | TACTTCTTCCATCTCAATTCCTCTTCTATTTTTCTGAGATCGGAGTCACCTAGTGCAG | 9490 fluorescence intensity (a.u.)
35 | CCATTTGTTTCACTTTACACCACACCTCATCTTCTCCAAGCGGAGTCACCTAGTGCAG | 9850 fluorescence intensity (a.u.)
36 | TCTTCTTTTTCCTTCTCATCGGTCCTTATATATACATCAGCGGAGTCACCTAGTGCAG | 8780 fluorescence intensity (a.u.)
37 | CTACCGCCACCATCCACTGCCATTTGCCGGTCGCTGCCATCGGAGTCACCTAGTGCAG | 9040 fluorescence intensity (a.u.)
38 | GGCCACCTGCTACACTGCTAACTTCAAACGGCCGCCGAATCGGAGTCACCTAGTGCAG | 8170 fluorescence intensity (a.u.)
39 | CATAACCCTAGCCGCCGCCGCCCGTTCTCCCTCGTCCTCCCGGAGTCACCTAGTGCAG | 9860 fluorescence intensity (a.u.)
40 | AATGCACAGCTAGTACTACTCGCGAGTCACCATCCATCTCCGGAGTCACCTAGTGCAG | 8340 fluorescence intensity (a.u.)
41 | TCTCTCTCTATACTCCACTCATGTGCTGTACTACACTGACCGGAGTCACCTAGTGCAG | 11300 fluorescence intensity (a.u.)
42 | CTAGATTCGTTTTTTATGGGGTGGAGGGAGTACATGCCTTCGGAGTCACCTAGTGCAG | 12800 fluorescence intensity (a.u.)
43 | AACGCACTACCGTGCACTATATAGTCACATCCATTAAAACCGGAGTCACCTAGTGCAG | 8530 fluorescence intensity (a.u.)
44 | TTTTTTTCTCGTCTTCAAAATATACAGTGCTGTTTTTTATCGGAGTCACCTAGTGCAG | 8880 fluorescence intensity (a.u.)
45 | AATTGTTTATTTTTCTTTTTTTTTCTTTGCCTATTTTCCACGGAGTCACCTAGTGCAG | 10200 fluorescence intensity (a.u.)
46 | ATCCTCACTCGCCGCCTTCTCTCCTCTCGCGCCGTTTCGCCGGAGTCACCTAGTGCAG | 9420 fluorescence intensity (a.u.)
47 | AAACTATGTGATTAATTACCGAATTTCATTGTGCCGCATTCGGAGTCACCTAGTGCAG | 8860 fluorescence intensity (a.u.)
48 | CCTCCGTTTTTAAATATTTGATGCCGTTGACTTTTTAAAACGGAGTCACCTAGTGCAG | 19900 fluorescence intensity (a.u.)
49 | CGTCCTCAACCGTGACGCCGCCGCGCGCCTCACCATCTCGCGGAGTCACCTAGTGCAG | 9670 fluorescence intensity (a.u.)
50 | GTGCTAGCTTATCTAACATTCATGCTTTGCTTCTCCCTTACGGAGTCACCTAGTGCAG | 8590 fluorescence intensity (a.u.)
51 | TTGGAGTCGGCGCCCCGCGCGTTGCCTCATCCGGTCAACGCGGAGTCACCTAGTGCAG | 9440 fluorescence intensity (a.u.)
52 | GAGGAGGAGTCTTGACTCTTGCGAGCGTGTTCGTTCTTGGCGGAGTCACCTAGTGCAG | 9300 fluorescence intensity (a.u.)
53 | TCCTCAAATTGCTCTATTTTTTCCTGCGGCCCAATCAAACCGGAGTCACCTAGTGCAG | 10100 fluorescence intensity (a.u.)
54 | GACTCCGCCGCCGCCGCCGCCGCCGCCGCCTCCGGCTCCGCGGAGTCACCTAGTGCAG | 8630 fluorescence intensity (a.u.)

Random excerpt: 3 records from the list, in no set order.
Row | Sequence | binding signal
31 | ATCGGCTTTGACTCTGGCTTTGAATCCGGCCCACGGCCTTCGGAGTCACCTAGTGCAG | 9460 fluorescence intensity (a.u.)
25 | CATTTGTCTTGCAGTTCTTGCGGCTGGGCTCAAAGTTTTACGGAGTCACCTAGTGCAG | 8310 fluorescence intensity (a.u.)
10 | TTCTATTGGAAACGTTTAGCTATTTGGTTATCATTATTGTCGGAGTCACCTAGTGCAG | 10600 fluorescence intensity (a.u.)
